Here are results for 23 sequences from publication PMC7819943, “Rice protein-binding microarrays: a tool to detect cis-acting elements near promoter regions in rice”.

By UniProt entry, the sequences of proteins in these tests, tags left out.
UniProt Q0JBA9, entry or part of it: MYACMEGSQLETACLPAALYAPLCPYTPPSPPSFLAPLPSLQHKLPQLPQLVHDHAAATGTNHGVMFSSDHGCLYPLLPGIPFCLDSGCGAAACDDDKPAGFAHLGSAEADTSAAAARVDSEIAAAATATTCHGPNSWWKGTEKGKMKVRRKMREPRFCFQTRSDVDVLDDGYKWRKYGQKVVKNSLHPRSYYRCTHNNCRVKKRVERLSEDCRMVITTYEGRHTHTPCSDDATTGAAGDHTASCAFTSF

The other results are listed elsewhere or left out.

The experiment has as its target OsWRKY34 (Oryza sativa, UniProt Q0JBA9 1-250). The experiment in a line: protein-binding microarray (RPBM); PBS, 2% BSA, 51.3 ng/ul salmon testes DNA, 50 uM zinc acetate, 200 nM TF, 25 C, 1 h; high values mean tight binding. The conditions noted are these: protein: recombinant; tags: N-terminal polyhistidine and DsRed monomer fusion (pET32a); label: CyDye5-dUTP incorporated in the synthesized complementary strand; 3' TTTTT single-stranded linker to array surface; dsDNA, one strand shown. The method in brief: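 A custom Agilent array was converted to double-stranded form by primer extension with Cy5-dUTP and blocked with 2% BSA. Protein at 200 nM in PBS with 2% BSA, salmon testes DNA and 50 µM zinc acetate was applied for 1 h at 25 °C, followed by washing. The proteins were polyhistidine–DsRed N-terminal fusions of transcription factors, expressed in E. coli BL21-CodonPlus and Ni–NTA-purified. The binding signal is per-feature fluorescence intensity (arbitrary units) from an Axon 4000B scanner.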
For “GGTGACGCCTTATGAATGTACGCGTCCTTACTGTCTCTTTCGGAGTCACCTAGTGCAG”, the binding signal is 8600 fluorescence intensity (a.u.).
Next, “CCGTGCACGCTCCCAGATCATGCCACGTGGGTGGGCCCCACGGAGTCACCTAGTGCAG”: 9020 fluorescence intensity (a.u.); “GATGGAGTACTAGTTGACTTGACCTATCAGGCTCTCACCCCGGAGTCACCTAGTGCAG”: 8580 fluorescence intensity (a.u.); “TCACAAATGACAGAACTTACAGGCTCTTCACCTCTCTACTCGGAGTCACCTAGTGCAG”: 9310 fluorescence intensity (a.u.).
With “GGCTCGGGGCGGCGGAATCATGGGCGATTGGGGCGGCAACCGGAGTCACCTAGTGCAG” the figure was 22500 fluorescence intensity (a.u.); with “TTGGCCTCTTTTCCAATTGTAGTGGCATACGGCCCACTTCCGGAGTCACCTAGTGCAG”, 8740 fluorescence intensity (a.u.).
With “CATATACTACATTTTCTTCTTACTACCATTTCAATTCAACCGGAGTCACCTAGTGCAG” the figure was 9380 fluorescence intensity (a.u.).
As for “CCCTAATACAATTATTTCTTACTTTATGTACTTCTAATATCGGAGTCACCTAGTGCAG”, the binding signal is 8950 fluorescence intensity (a.u.).
With “TCTTTCTGTACTTTTCTTTCTTCATTCATGCCGTGATCGACGGAGTCACCTAGTGCAG” the figure was 8830 fluorescence intensity (a.u.); with “ATATTACATTGCTTGTTCAATATACCCTCTTTATCTTTTCCGGAGTCACCTAGTGCAG”, 8460 fluorescence intensity (a.u.); with “TGTGACGCTCTGTTTCTGTTATTCTTTCTGAACCGTTTTCCGGAGTCACCTAGTGCAG”, 9470 fluorescence intensity (a.u.).
In the case of “TGCATGGGTGTCATATCTAGTTGCTATTCAAAATTCATATCGGAGTCACCTAGTGCAG”, the binding signal is 8220 fluorescence intensity (a.u.).
With “CGAGCTGCCTCCACTGCCTCGCCCACCATTACTACTTCCTCGGAGTCACCTAGTGCAG” the figure was 8340 fluorescence intensity (a.u.); with “CTCCGCCGCCGCACTCGCGCTCCGCTACTCTGTCCGCGGCCGGAGTCACCTAGTGCAG”, 9990 fluorescence intensity (a.u.).
Take “ACTTATGTTGGGTTTCATTTATTCTCGGTCGAATCATGCTCGGAGTCACCTAGTGCAG”: the binding signal is 9530 fluorescence intensity (a.u.).
Next, “TTGCTTGGGTTGGGTTGGAGCGGTGAGACGAGAGATTGAGCGGAGTCACCTAGTGCAG”: 12600 fluorescence intensity (a.u.).
For the sequence “CCCTTCCACAAATCCAAATTCCTATTAGCCTCAAATACTTCGGAGTCACCTAGTGCAG”, the binding signal was 8840 fluorescence intensity (a.u.).
In the case of “ATTCGCCGCCTCGCCTAACCAAAACGCGTCCCTTTCCTCGCGGAGTCACCTAGTGCAG”, the binding signal was 8560 fluorescence intensity (a.u.).
Take “ATACCGACATTGCTCAAGCTCATTATCATCATCTCCGGGTCGGAGTCACCTAGTGCAG”: the binding signal is 9200 fluorescence intensity (a.u.).
Next, “GTGTATAATGGGGTTGAGTTGATTCGTTGAATTGATTGCTCGGAGTCACCTAGTGCAG”: 8920 fluorescence intensity (a.u.); “ATGTTCCTATTTAATCAAATTTTGTTCAACATTACAAATACGGAGTCACCTAGTGCAG”: 8100 fluorescence intensity (a.u.); “TCATCTCATATATGGTTTGACCGCGATGGTTTGTTTGCCACGGAGTCACCTAGTGCAG”: 8650 fluorescence intensity (a.u.).
Next, “TTCTTCCTTAAAATTGTATTCTGGGTGGGGAATTGGTTTACGGAGTCACCTAGTGCAG”: 15700 fluorescence intensity (a.u.).
